This assay has as its target T1, RecC subunit of RecBCD (E. coli) (UniProt P07648).
T1 sequence: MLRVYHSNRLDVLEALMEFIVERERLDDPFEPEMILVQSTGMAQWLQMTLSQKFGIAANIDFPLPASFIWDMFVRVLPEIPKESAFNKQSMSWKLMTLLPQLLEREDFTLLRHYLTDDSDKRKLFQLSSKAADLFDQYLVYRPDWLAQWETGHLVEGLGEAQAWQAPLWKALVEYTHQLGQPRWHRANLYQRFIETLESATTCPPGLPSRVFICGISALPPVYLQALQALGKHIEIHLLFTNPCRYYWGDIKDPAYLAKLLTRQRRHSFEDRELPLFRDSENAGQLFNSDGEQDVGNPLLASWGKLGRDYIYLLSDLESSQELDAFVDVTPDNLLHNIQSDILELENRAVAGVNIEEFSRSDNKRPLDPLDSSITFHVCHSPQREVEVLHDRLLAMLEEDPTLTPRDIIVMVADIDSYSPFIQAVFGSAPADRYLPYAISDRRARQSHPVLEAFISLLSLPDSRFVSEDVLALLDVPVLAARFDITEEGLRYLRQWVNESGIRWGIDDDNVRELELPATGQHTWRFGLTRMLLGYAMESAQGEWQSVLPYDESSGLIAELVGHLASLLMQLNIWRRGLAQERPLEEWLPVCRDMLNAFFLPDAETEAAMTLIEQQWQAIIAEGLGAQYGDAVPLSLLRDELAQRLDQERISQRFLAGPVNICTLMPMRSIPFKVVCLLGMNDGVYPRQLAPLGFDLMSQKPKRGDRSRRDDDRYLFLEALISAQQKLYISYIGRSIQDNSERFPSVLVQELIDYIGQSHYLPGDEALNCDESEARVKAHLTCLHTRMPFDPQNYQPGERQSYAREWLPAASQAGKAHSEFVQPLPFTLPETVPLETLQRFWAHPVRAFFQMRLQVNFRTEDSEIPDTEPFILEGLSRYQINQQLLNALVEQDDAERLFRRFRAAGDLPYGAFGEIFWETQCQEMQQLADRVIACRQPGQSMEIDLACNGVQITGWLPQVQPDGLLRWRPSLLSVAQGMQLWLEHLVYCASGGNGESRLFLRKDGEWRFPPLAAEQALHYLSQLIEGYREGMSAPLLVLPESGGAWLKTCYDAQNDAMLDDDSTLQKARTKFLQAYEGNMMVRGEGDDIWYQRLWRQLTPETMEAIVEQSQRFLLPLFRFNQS
Kind of assay: SEC; RecBCD over-expressed in E. coli and co-purified; last step Superdex 200 in RB (20 mM MOPS pH 7.4, 2 mM MgCl2, 1 mM DTT, 0.1 mM EDTA, 75 NaCl), 4 °C; taken from the monodisperse peak of the heterotrimer; stoichiometry checked by SDS-PAGE. Background: Size exclusion chromatography separates by hydrodynamic size, large species first.

Experimental findings from PMC8980037 are described below.

These are yes or no findings as the source states them, for the method shown. Some entries that bind do so weakly or less than the wild type.

B1: RecD subunit of RecBCD (protein, UniProt P04993 1-608)
chain: MKLQKQLLEAVEHKQLRPLDVQFALTVAGDEHPAVTLAAALLSHDAGEGHVCLPLSRLENNEASHPLLATCVSEIGELQNWEECLLASQAVSRGDEPTPMILCGDRLYLNRMWCNERTVARFFNEVNHAIEVDEALLAQTLDKLFPVSDEINWQKVAAAVALTRRISVISGGPGTGKTTTVAKLLAALIQMADGERCRIRLAAPTGKAAARLTESLGKALRQLPLTDEQKKRIPEDASTLHRLLGAQPGSQRLRHHAGNPLHLDVLVVDEASMIDLPMMSRLIDALPDHARVIFLGDRDQLASVEAGAVLGDICAYANAGFTAERARQLSRLTGTHVPAGTGTEAASLRDSLCLLQKSYRFGSDSGIGQLAAAINRGDKTAVKTVFQQDFTDIEKRLLQSGEDYIAMLEEALAGYGRYLDLLQARAEPDLIIQAFNEYQLLCALREGPFGVAGLNERIEQFMQQKRKIHRHPHSRWYEGRPVMIARNDSALGLFNGDIGIALDRGQGTRVWFAMPDGNIKSVQPSRLPEHETTWAMTVHKSQGSEFDHAALILPSQRTPVVTRELVYTAVTRARRRLSLYADERILSAAIATRTERRSGLAALFSSRE
As to B1, the binding result was “binds”.
